Drawing on patent US20110076265A1, this text covers binding for 1 molecule.

Sequences of proteins named here, by UniProt entry; tags and fusion partners are left off. Residues count along the entry.
UniProt P03454, residues 18-565: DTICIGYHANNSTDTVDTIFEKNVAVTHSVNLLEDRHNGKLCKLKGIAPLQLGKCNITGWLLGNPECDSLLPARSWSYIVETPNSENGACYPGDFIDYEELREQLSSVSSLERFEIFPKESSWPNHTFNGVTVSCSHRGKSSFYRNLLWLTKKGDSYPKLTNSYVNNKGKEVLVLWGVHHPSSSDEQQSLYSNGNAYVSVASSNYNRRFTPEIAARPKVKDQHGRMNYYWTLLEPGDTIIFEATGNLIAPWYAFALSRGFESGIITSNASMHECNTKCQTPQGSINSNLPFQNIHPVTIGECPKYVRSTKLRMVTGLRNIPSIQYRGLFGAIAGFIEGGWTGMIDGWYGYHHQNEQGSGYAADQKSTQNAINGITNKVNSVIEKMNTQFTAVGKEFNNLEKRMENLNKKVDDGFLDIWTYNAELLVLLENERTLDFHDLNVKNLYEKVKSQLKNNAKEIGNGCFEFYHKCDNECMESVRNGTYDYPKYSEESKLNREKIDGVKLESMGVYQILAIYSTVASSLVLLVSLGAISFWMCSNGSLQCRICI

These are yes or no findings as the source states them, for the method shown. Some entries that bind do so weakly or less than the wild type.

The assay addresses H1-subtype hemagglutinin of influenza A virus A/Wilson-Smith/33 (influenza A virus A/Wilson-Smith/33 (H1N1)) (UniProt P03454).

B1: IgG antibodies produced by the EBV-transformed human B cell clone cINF49 (antibody, V domains shown)
VH: LESGGGLVQPGGSLRLSCAASGITFSSYAMSWVRQAPGKGLEWVSTVNSGGGSTYYGDSVRGRFTISRDNSKSTLYLQLNSLRAEDTAIYYCAKDKGRPIFGLVTPSYYMDVWGNGT
VL: ELTQSPSSLSASVGDSVTITCRTSERISTYLNWYQQKPGKAPRLLVSGASTLQGGVPSRFSGSGSGTAFTLTINSLQPEDFATYYCQQSYSTPLTFGGGT
Consider B1, for which the binding result is “binds”.
